These are yes or no findings as the source states them, for the method shown. Binding seen in cells or lysates may run through a third protein. Some binding calls cover weakened binding; strength is not graded here. Tags and fused reporters may be left off the sequences shown.
Molecular target: Myc-tagged RBP-J (recombination signal binding protein-J) (UniProt Q06330)
Assay: co-IP; HeLa cells co-transfected with pCMV-Myc-RBP-J and pEGFP-FHL1C; lysates 48 h post-transfection; immunoprecipitation with anti-Myc antibody (9E10), blot with anti-FHL1

Protein sequences, listed by entry. Tags and fused reporters are not part of them.
UniProt Q06330: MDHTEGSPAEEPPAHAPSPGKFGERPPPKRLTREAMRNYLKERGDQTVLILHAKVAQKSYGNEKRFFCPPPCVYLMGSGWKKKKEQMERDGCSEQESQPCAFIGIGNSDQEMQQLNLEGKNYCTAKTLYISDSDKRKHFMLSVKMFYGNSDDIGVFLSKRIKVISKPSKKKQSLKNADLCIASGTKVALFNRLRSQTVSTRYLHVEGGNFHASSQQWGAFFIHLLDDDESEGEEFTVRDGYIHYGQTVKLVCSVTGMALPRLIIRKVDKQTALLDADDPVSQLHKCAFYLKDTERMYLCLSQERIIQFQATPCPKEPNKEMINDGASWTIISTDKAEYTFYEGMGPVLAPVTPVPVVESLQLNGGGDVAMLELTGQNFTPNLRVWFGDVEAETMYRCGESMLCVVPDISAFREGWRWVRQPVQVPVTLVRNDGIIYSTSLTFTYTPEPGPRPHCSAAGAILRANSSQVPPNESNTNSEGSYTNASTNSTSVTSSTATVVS

binding: binds
B1: EGFP-tagged FHL1C (human four-and-a-half LIM domain protein 1C) (protein, UniProt Q13642-3 1-194)
chain: MAEKFDCHYCRDPLQGKKYVQKDGHHCCLKCFDKFCANTCVECRKPIGADSKEVHYKNRFWHDTCFRCAKCLHPLANETFVAKDNKILCNKCTTREDSPKCKGCFKAIVAGDQNVEYKGTVWHKDCFTCSNCKQVIGTGSFFPKGEDFYCVTCHETKFAKHCVKCNKGLVKAPVWWPMKDNPGTTTASTAKNAP

Reference: PMC4077834
